In PubChem BioAssay AID1347076 (National Center for Advancing Translational Sciences (NCATS), 2019):
Screen size: about 400,000 compounds; about 13,000 (3.2%) were called active. Inconclusive means that the source gave no clear call. Such entries were picked first, then a sample of the others. Calls follow the shape of the dose curve; as a rule, active = well fitted cell-killing curve with a large enough effect; inconclusive = small, poorly fitted or top-dose-only effect, or effect the other way; inactive = flat fitted curve, though single readings scatter. A potency beside an inconclusive call is a rough fit, not a confirmed value.

Assay: qHTS assay for MDR1-selective chemotherapeutics: Primary screen using the drug-selected MDR subline cells KB-V1; also: nearly all actives have a fitted effect of over 60% in size
Details: KB-V1 MDR cells viability, CellTiter-Glo, 72 h; series mostly up to 46.1 µM
Summary of the method: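 Luminescent ATP read-out (CellTiter-Glo, 10 min) measures survival of drug-selected KB-V1 MDR cells after 72 h, 37 degrees C compound exposure. Medium: phenol-red-free DMEM, 10% FBS. Values from fitted concentration-response curves.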
Potency is read from the fitted curve at half-maximal effect.

Structure (SMILES)	Potency
Cc1ccccc1N=C1c2ccccc2C(=O)C1[N+](=O)[O-] (stereo unspecified)	inconclusive: 29.1 µM [cytotoxic, single point]
Cc1cc(C)c(NC(=O)CCCn2c(C)c3cnn(-c4ccccc4)c(=O)c3c2C)c(C)c1	inactive
COc1ccccc1-c1nnc(SCC(=O)Nc2oc(C)c3c(C)n[nH]c(=O)c23)n1C	inactive
CCC(=O)c1ccc(N2CCN(C(=O)c3ccccc3)CC2)c(F)c1	inactive
CCCC[C@@H]1CNC(=S)N1CCc1cccc2ccccc12	inactive
CCN(CC)S(=O)(=O)c1ccc2[nH]cc(C(=O)NCCc3ccccc3)c(=O)c2c1	inconclusive: 13 µM [rising, partial curve, poor fit]
COc1ccc(C2CC(=O)C3=C(C2)Nc2ncnn2C3c2ccccc2C)cc1 (stereo unspecified)	active: 16.4 µM
CCN(Cc1ccccc1)C(=O)c1ccc2c(=O)n3c(nc2c1)CCC3	active: 10.3 µM
COc1ccc(N2CCN(C(c3cccs3)c3nnnn3C3CCCC3)CC2)cc1 (stereo unspecified)	inconclusive: 10.3 µM [cytotoxic, partial curve]
COc1ccccc1N(CC(=O)NCCSc1ccccc1)S(C)(=O)=O	inconclusive: 0.206 µM [cytotoxic, full curve]
O=C(NCCN1CCN(C(=O)c2ccc(F)cc2)CC1)c1ccc(F)cc1	inactive
N=c1c(S(=O)(=O)c2ccc(Cl)cc2)cc2c(=O)n3ccccc3nc2n1CCN1CCOCC1	active: 13 µM
Cc1ccc(C)c(S(=O)(=O)Nc2ccccc2C(=O)Nc2ccc(S(=O)(=O)Nc3ncccn3)cc2)c1	inconclusive: 16.4 µM [rising, single point]
CCC(=O)c1c(CC)c2n3c1CC[C@H]3CCC2	inactive
CC(C)=CCc1c(O)cc(O)c2c(=O)c3c(CC=C(C)C)c(O)ccc3oc12	inconclusive: 29.1 µM [cytotoxic, single point]
COCCCC1CCN(C(=O)C2CCC(=O)N(CCc3cccc(F)c3)C2)CC1 (stereo unspecified)	inconclusive: 18.4 µM [cytotoxic, single point]
COc1ccc(-c2nc3c(C)cc(Br)cn3c2CC2CCCCC2)cc1OC	inactive
Cc1nc2ccc(NS(=O)(=O)c3ccc(F)cc3)cc2s1	inconclusive: 16.4 µM [cytotoxic, single point]
Cc1ccsc1CNCc1cc(Cl)ccc1O	inactive
Cc1ccc(S(=O)(=O)N(C)C)cc1NC(=O)C1CCCC1	inconclusive: 20.6 µM [cytotoxic, single point]
CN(CC1CCCN(CCc2ccc(Cl)cc2)C1)C(=O)c1ccoc1 (stereo unspecified)	inconclusive: 10.3 µM [cytotoxic, partial curve]
CC1(C)OC(=O)N(c2ccccc2)C12C=Cc1cc(Br)ccc1O2 (stereo unspecified)	inconclusive: 16.4 µM [cytotoxic, single point]
Cc1cc(N=Nc2ccccc2)cc(C)c1NC(=O)C(F)(F)F	inconclusive: 18.4 µM [cytotoxic, single point]
COCCNC(=O)c1cccc(Nc2nc(-c3ccccc3)c3cc(Cl)ccc3n2)c1	inconclusive: 29.1 µM [cytotoxic, single point]

Structure (SMILES)	Potency
Cc1nc2scc(-c3ccc(Cl)cc3)c2c(=O)n1N	inconclusive: 20.6 µM [cytotoxic, single point]
Cc1ccc2c(c1)S/C(=C\c1cccc[n+]1C)N2CCO	inconclusive: 23.1 µM [rising, single point]
Cc1ccccc1NS(=O)(=O)c1ccc(C(=O)NCC(c2ccco2)N(C)C)cc1 (stereo unspecified)	active: 14.6 µM
COc1cccc(-n2cc(C(=O)OCc3ccc(Cl)cc3)c3ccccc3c2=O)c1	inactive
O=C(C[C@@H]1C/C=C\CC[C@@H](Cc2ccc(F)cc2)C(=O)OC[C@@H]2CCCN2C1=O)NCCO	inconclusive: 25.9 µM [rising, partial curve, poor fit]
O=C(Nc1ccc(Oc2cccnc2)cc1)C1CCN(Cc2cc(Cl)ccc2O)CC1	inconclusive: 29.1 µM [cytotoxic, single point]
Cc1ccc(C(=O)Nc2cccc(NC(=O)c3cccs3)c2)c(C)c1	inconclusive: 5.17 µM [cytotoxic, full curve, poor fit]
COc1cc(NS(=O)(=O)c2ccc(C)cc2)c2ncccc2c1	inconclusive: 3.66 µM [cytotoxic, full curve]
CC(=O)Nc1ccc(NC(=O)COc2ccccc2C(=O)Nc2cccc(Cl)c2Cl)cc1	inconclusive: 29.1 µM [rising, partial curve, poor fit]
Cc1nc(NC(=S)NC(=O)c2cncc(Br)c2)ccc1Br	active: 3.66 µM
CCOC(=O)c1nc(Nc2ccc(C(=O)OC)cc2)c2ccccc2n1	inconclusive: 25.9 µM [cytotoxic, single point]
O=c1cc(-c2ccccc2Cl)oc2c(Br)ccc(O)c12	inconclusive: 16.4 µM [cytotoxic, single point]
CCN(CC)C(=O)CSc1nc2ccccc2c(=O)n1-c1ccccc1OC	inconclusive: 5.17 µM [cytotoxic, partial curve]
COc1ccc(-c2nn(-c3ccccc3)cc2/C=N/NC(=O)c2ccc(Br)o2)cc1	inconclusive: 23.1 µM [cytotoxic, partial curve, poor fit]
Cc1cccc(NC(=O)c2cccc(Cn3cc(Br)c([N+](=O)[O-])n3)c2)c1C	active: 11.6 µM
CN1C(=O)C2C(c3ccc(N(C)C)cc3)=NN(Cc3ccccc3)C2C1=O (stereo unspecified)	inconclusive: 23.1 µM [cytotoxic, single point]
COC(=O)c1ccc(NS(=O)(=O)c2cc(C)ccc2OC)cc1	inconclusive: 20.6 µM [cytotoxic, single point]
CC(C)C[C@H]1CN([C@@H](Cc2ccccc2)CN2CCC[C@@H]2CN2C(=O)C(=O)NC[C@@H]2Cc2ccc(O)cc2)C(=O)C(=O)N1CC1CCCCCC1	inactive
CN1CCN(C(=S)SCC(=O)Nc2nc(-c3ccccc3)c(-c3ccccc3)o2)CC1	active: 20.6 µM
Cc1cc(C)n2c(SCC(=O)N(CCC#N)c3ccc4c(c3)OCCO4)nnc2n1	inactive
Cc1ccc2cc(CN(CC(C)C)C(=O)C3CCCO3)c(=O)[nH]c2c1 (stereo unspecified)	inconclusive: 10.3 µM [cytotoxic, partial curve, poor fit]
Cc1ccc2c(c1)N(CC(=O)c1cccc(Cl)c1)C(=O)C(C)O2 (stereo unspecified)	inconclusive: 8.2 µM [cytotoxic, partial curve]
COc1ccccc1N1CCN(C2CCN(C(=O)c3cccc(F)c3)CC2)CC1	active: 16.4 µM
COc1ccc(N(C)C(=O)Cc2c(C(=O)O)n(C)c3ccccc23)cc1	inconclusive: 0.411 µM [rising, full curve, poor fit]

Of the compounds above, these have a furan ring, fused or not.
Structure (SMILES)	Potency
COc1ccccc1-c1nnc(SCC(=O)Nc2oc(C)c3c(C)n[nH]c(=O)c23)n1C	inactive
CN(CC1CCCN(CCc2ccc(Cl)cc2)C1)C(=O)c1ccoc1 (stereo unspecified)	inconclusive: 10.3 µM [cytotoxic, partial curve]
Cc1ccccc1NS(=O)(=O)c1ccc(C(=O)NCC(c2ccco2)N(C)C)cc1 (stereo unspecified)	active: 14.6 µM
COc1ccc(-c2nn(-c3ccccc3)cc2/C=N/NC(=O)c2ccc(Br)o2)cc1	inconclusive: 23.1 µM [cytotoxic, partial curve, poor fit]

A second format for part of the listing above:
CCOC(=O)c1nc(Nc2ccc(C(=O)OC)cc2)c2ccccc2n1
  Potency: inconclusive: 25.9 µM [cytotoxic, single point]
Cc1cc(C)n2c(SCC(=O)N(CCC#N)c3ccc4c(c3)OCCO4)nnc2n1
  Potency: inactive

Going on with the list.

Structure (SMILES)	Potency
Cc1cc(C(=O)COC(=O)c2n[nH]c3ccccc23)c(C)n1C	inactive
CC(C)CC(=O)NCCc1ccncc1	inactive
O=C(COC(=O)c1ccc(F)cc1)NC1CC1	inconclusive: 29.1 µM [rising, single point]
Cc1ccc(NC(=S)NCc2cccs2)c(C)c1	inactive
COC(=O)c1ccc(CC(=O)c2ccc(O)cc2O)o1	inconclusive: 20.6 µM [rising, single point]
COc1cccc(C(=O)NCC(=O)OCc2cc(=O)n3ccsc3n2)c1	inconclusive: 23.1 µM [rising, partial curve, poor fit]
O=c1[nH]c(CSc2ccccn2)nc2c1cnn2-c1ccccc1	active: 20.6 µM
CCOc1cc(-c2c(C#N)c(N)nc3c2CCc2ccccc2-3)ccc1O	active: 23.1 µM
CCc1ccccc1NC(=S)NCc1cccn1C	inconclusive: 18.4 µM [cytotoxic, partial curve, poor fit]
O=C(c1ccccc1)N1CCCC(c2nc3c(nnn3Cc3ccccc3)c(=O)[nH]2)C1 (stereo unspecified)	inconclusive: 25.9 µM [cytotoxic, single point]
Cn1cnnc1SCC(=O)Nc1cc(S(=O)(=O)N2CCCCC2)ccc1Cl	inactive
O=C(N/N=C/c1ccccn1)c1ccc(S(=O)(=O)N2CCCCCC2)cc1	inconclusive: 9.2 µM [rising, partial curve, poor fit]
Fc1ccc(NC(=S)NC2CC3CCC(C2)N3Cc2ccco2)cc1 (stereo unspecified)	inconclusive: 18.4 µM [cytotoxic, partial curve, poor fit]
Cc1nc(SCCc2ccccc2)[nH]c(=O)c1C	active: 3.26 µM
CCCCNCCCOc1cccc(Cl)c1	inconclusive: 8.2 µM [cytotoxic, partial curve]
COc1ccc(C(=O)c2ccccc2C(=O)c2ccccc2)cc1	active: 18.4 µM
CC(Cc1cccs1)NC(=S)Nc1ccc(Cl)cc1 (stereo unspecified)	inactive
Cc1cccc(C)c1-n1nnnc1C1(C)CCC(=O)N1Cc1cccc(C(F)(F)F)c1 (stereo unspecified)	inconclusive: 13 µM [cytotoxic, partial curve]
COc1cc(/C=C2/SC(N)=NC2=O)ccc1Oc1ccc([N+](=O)[O-])cc1[N+](=O)[O-]	inactive
COc1ccc(/C=C/c2cc(O)cc(OC3OC(CO)C(O)C(O)C3O)c2)cc1 (stereo unspecified)	inactive
CN(C)c1ccc(/C=C/C(=O)c2ccc(C(C)(C)C)cc2)cc1[N+](=O)[O-]	active: 18.4 µM
O=C(/C=C/c1c(Cl)nc2ccccn12)N1CCN(c2ccc(F)cc2)CC1	inconclusive: 7.31 µM [cytotoxic, partial curve]
CC(=O)Nc1ccc(S(=O)(=O)Oc2ccc(C(=S)N3CCCCC3)cc2)cc1	inconclusive: 9.2 µM [cytotoxic, partial curve]
